Source: ChEMBL document CHEMBL4359862, “Cinnamamide: An insight into the pharmacological advances and structure-activity relationships” (Eur J Med Chem, 2019)

Experiments:
Escherichia coli = experiment: Antibacterial activity against Escherichia coli assessed as reduction in bacterial cell viability incubated for 24 hrs by serial dilution assay; format: functional
Candida albicans = experiment: Antifungal activity against Candida albicans assessed as reduction in fungal cell growth incubated for 48 hrs by serial dilution assay; format: functional

COc1ccc(NC(=O)/C=C/c2ccccc2)cc1 [N-(4-METHOXYPHENYL)CINNAMAMIDE]
log(1/MIC) (Escherichia coli): 2.43
log(1/MIC) (Candida albicans): 2.43
